Measured values taken from patent EP4834897A1, “COMPOUNDS WITH TWO AZAHETEROCYCLES SUBSTITUTED ISOINDOLINONE SKELETON AND USES THEREOF” (dated 2026).
Some entries of the source have several records that differ or are many. This is not the full list of results. The source may hold further records. Values given together seem to repeat one measurement (runs, samples, wells or individuals).

Test system: Human multiple myeloma cell (MM.1S)
Assay: Tumor cell proliferation inhibition (cell viability assay)
Conditions: read-out: Inhibitory activity against tumor cells proliferation (IC50, nM) MM.1S; MM.1S cells; 96 hours

- IC50: 1 µM to 5 µM and 200 nM to 500 nM
Structure (SMILES): Nc1cccc2c1CN(C1CCC(=O)NC1=O)C2=O (stereo not shown)
